Experimental data as given in PubChem BioAssay AID504834 (National Center for Advancing Translational Sciences (NCATS), 2011).
In all, about 320,000 compounds went through this assay and about 22,000 (6.9%) were called active. Inconclusive means that the source gave no clear call. Such entries were picked first, then a sample of the others. The call rests on the fitted dose curve; in most records, active means well fitted inhibition curve with a large enough effect; inconclusive means small, poorly fitted or top-dose-only effect, or another doubt; inactive means no such curve, though single readings can be large or run the other way. A potency beside an inconclusive call is a rough fit, not a confirmed value.
On the % scale 0 is the no-effect control and ±100 the full control effect; potency means the concentration at half of the fitted maximal effect.

Experiment: Primary qHTS for delayed death inhibitors of the malarial parasite plastid, 96 hour incubation
Conditions: P. falciparum luciferase reporter growth; series mostly up to 28.7 µM; activity change, negative = inhibition: at the top concentration
Outline: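 Two-generation exposure (96 h) targets delayed-death phenotype. Reporter parasites carrying integrated firefly luciferase, in red cells at 2% hematocrit and 0.05% parasitemia final, kept at 37 C, 5% CO2; luminescence loss indicates inhibition.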
With `CC(C)Oc1ccc(C(=O)Nc2ccc(N3CCN(C(=O)c4ccco4)CC3)cc2)cc1` the Potency was inconclusive: 20.8 µM [inhibitor, single point].
In the case of `Cc1ccccc1S(=O)(=O)NNC(=O)C(=O)NNc1ccccn1`, the Potency is reported as inconclusive: 18.5 µM [inhibitor, single point].
In the case of `CC(=O)c1cnc2nc(SCc3ccc(C)cc3)nn2c1C`, the Potency is reported as active: 13.1 µM.
In the case of `CCOC(=O)c1ccc(-n2c(N)c(C(=O)NCc3ccco3)sc2=S)cc1`, the “activity change, negative = inhibition” value is reported as inactive: 12.7%.
In the case of `C=CCn1c(SCC(=O)NCC)nc2sc3c(c2c1=O)CCC3`, the Potency is reported as inconclusive: 4.15 µM [inhibitor, partial curve, poor fit].
For `CC(/C=N/NC(=O)C(O)c1ccccc1)=C\c1ccccc1` (stereo not given), the “activity change, negative = inhibition” value was inactive: 43.3%.
With `Cc1cc(Cn2nc(-c3ccccc3)cc2C(=O)NCc2cccs2)on1` the Potency was inconclusive: 18.5 µM [inhibitor, single point].
In the case of `CCn1ccnc1CN(C)C(=O)C1CCC(=O)N(Cc2cccc(F)c2)C1` (stereo not given), the Potency is reported as inconclusive: 13.1 µM [inhibitor, single point].
For `COc1cc(NC(=O)Cn2cnc3c(nc4n3CCCCC4)c2=O)cc(OC)c1OC`, the “activity change, negative = inhibition” value was inactive: 7.49%.
With `CCc1ccc(C(=O)NNC(=S)Nc2ccc(S(N)(=O)=O)cc2)s1` the “activity change, negative = inhibition” value was inactive: 17.2%.
With `O=C(NCCc1c[nH]c2ccccc12)C1CCN(S(=O)(=O)c2ccccc2)CC1` the Potency was inconclusive: 6.57 µM [inhibitor, partial curve].
For `Cc1cccc(Oc2ccccc2NC(=O)c2cnccn2)c1`, the Potency was inconclusive: 5.22 µM [inhibitor, partial curve].
In the case of `COc1ccc(-c2[nH]ncc2CN2CCCCCCC2)c(OC)c1`, the Potency is reported as inconclusive: 11.7 µM [inhibitor, single point].
In the case of `CCn1cc(C(=O)O)c(=O)c2cc(F)c(N3CCN(S(=O)(=O)c4ccc(NC(=O)OC)cc4)CC3)cc21`, the Potency is reported as inconclusive: 0.465 µM [inhibitor, full curve, poor fit].
With `C/C(=N/NS(=O)(=O)c1ccccc1)c1c[nH]c2ccccc12` the Potency was inconclusive: 18.5 µM [inhibitor, single point].
In the case of `O=C(NCc1ccco1)/C(=C\c1ccco1)NC(=O)c1cccs1`, the Potency is reported as inconclusive: 20.8 µM [inhibitor, single point].
With `COc1ccc(S(=O)(=O)N2CCOCC2)cc1NC(=O)/C=C/c1ccc(F)cc1` the Potency was inconclusive: 18.5 µM [inhibitor, single point].
With `CCOC(=O)c1cc2c(ccn2C)n1Cc1cc(C)ccc1C` the “activity change, negative = inhibition” value was inactive: -3.97%.
In the case of `CNc1oc(Cc2cccc3ccccc23)nc1C#N`, the Potency is reported as inconclusive: 18.5 µM [inhibitor, single point].
With `CCN1CCN(CCCNC(=O)Cn2nc(C)n3nc(-c4ccccc4)cc3c2=O)CC1` the Potency was inconclusive: 1.47 µM [inhibitor, full curve].
For `COc1ccc(S(=O)(=O)N2CCC(C(=O)NCc3ccncc3)CC2)cc1`, the “activity change, negative = inhibition” value was inactive: 2.07%.
For `Cc1nc2c(C(=O)NCc3ccc4c(c3)OCO4)c[nH]n2c(=O)c1Cc1ccccc1F`, the “activity change, negative = inhibition” value was inactive: 69.3%.
For `O=C(NC(=S)NCC1CCCO1)c1ccccc1F` (stereo not given), the Potency was inconclusive: 5.22 µM [inhibitor, partial curve].
For `CCOc1ccc(Nc2nc(Nc3ccc(O)cc3)nc(C)c2[N+](=O)[O-])cc1`, the Potency was inconclusive: 11.7 µM [inhibitor, partial curve, poor fit].
With `COc1ccc(NC(=O)CN2CCc3ccccc3C2)cc1S(=O)(=O)N1CCOCC1` the Potency was inconclusive: 14.7 µM [inhibitor, partial curve, poor fit].
With `CCOP(=O)(OCC)C(NCc1ccccc1)c1ccc(Br)cc1` (stereo not given) the Potency was inconclusive: 18.5 µM [inhibitor, single point].
In the case of `Cc1cc(N2CCN(c3ccccc3)CC2)nc(-c2ccccc2)n1`, the Potency is reported as inconclusive: 13.1 µM [inhibitor, single point].
With `CC(=O)C1=C(C)NC(=O)NC1c1ccccc1OCC(=O)NCCc1ccccc1` (stereo not given) the “activity change, negative = inhibition” value was inactive: 17.6%.
For `O=C(/C=C/c1ccccc1)NC(=S)Nc1cccnc1`, the Potency was inconclusive: 0.0029 µM [inhibitor, full curve, poor fit].
For `Cc1cc(CSc2ccccc2)ccc1NC(=O)c1ccc(Cl)c([N+](=O)[O-])c1`, the Potency was inconclusive: 0.0738 µM [inhibitor, full curve, poor fit].
With `CCOc1ccc(C(CCc2ccccc2)NC(=O)c2ccccc2F)cc1OCC` (stereo not given) the Potency was active: 1.47 µM.
In the case of `CC(=O)n1nc2nc(C)cc(C)c2c1N`, the Potency is reported as inconclusive: 4.15 µM [inhibitor, partial curve].
With `COc1cccc(CNC(=O)c2ccc(CS(=O)c3ccccc3)o2)c1` (stereo not given) the Potency was inconclusive: 18.5 µM [inhibitor, single point].
In the case of `COc1cc(/C=C2\C(=N)N3N=C(C)SC3=NC2=O)cc(Cl)c1OCCOc1ccc(NC(C)=O)cc1`, the “activity change, negative = inhibition” value is reported as inactive: -0.811%.
In the case of `COc1ccc(Nc2ncnc3ccc([N+](=O)[O-])cc23)c(OC)c1`, the Potency is reported as inconclusive: 1.65 µM [inhibitor, full curve, poor fit].
In the case of `Cc1cc(S(=O)(=O)NCc2ccccc2)ccc1OCC(=O)Nc1cccc([N+](=O)[O-])c1`, the “activity change, negative = inhibition” value is reported as inactive: -15.3%.
With `O=C(CSc1ccccn1)NC1CCCC1` the Potency was inconclusive: 5.22 µM [inhibitor, partial curve, poor fit].
With `O=C(c1coc2ccccc2c1=O)N1CCN(c2cccc(C(F)(F)F)c2)CC1` the Potency was inconclusive: 14.7 µM [inhibitor, single point].
With `O=C(Nc1ccnn1C1CCN(C2CCC2)CC1)c1ccccc1` the Potency was active: 11.7 µM.
With `O=C(O)Cn1nc(-c2ccc(Cl)cc2)ccc1=O` the Potency was active: 13.1 µM.
In the case of `COc1ccccc1CNC(=O)[C@H](C)NC(=O)C1CCN(C(=O)[C@@H](N)CCSC)CC1`, the “activity change, negative = inhibition” value is reported as inactive: -3.77%.
With `O=C(CCC1CCCCC1)Nc1cc(Cl)ccc1N1CCOCC1` the Potency was inconclusive: 9.28 µM [inhibitor, partial curve, poor fit].
In the case of `CCSc1nnc(NC(=O)[C@@H](NC(=O)c2ccccc2)C(C)C)s1`, the Potency is reported as inconclusive: 9.28 µM [inhibitor, single point].
In the case of `Cc1ccccc1CN(C)C(=O)c1ccc2ccccc2n1`, the “activity change, negative = inhibition” value is reported as inactive: 3.51%.
In the case of `Cc1ccc(N/N=C/c2c(O)n(-c3ccccc3)c(=O)[nH]c2=O)cc1`, the “activity change, negative = inhibition” value is reported as inactive: 39.1%.
With `CS(=O)(=O)N(CC(=O)O)c1cc(C(F)(F)F)ccc1Cl` the Potency was inconclusive: 0.0033 µM [inhibitor, full curve, poor fit].
With `Cc1cc(C(C)(C)C)cc(C)c1CCNC(=O)c1ccc[n+]([O-])c1` the Potency was inconclusive: 5.22 µM [inhibitor, partial curve, poor fit].
For `COc1ccc(NC(=O)CSc2nnc(Cc3cccn3C)n2-c2ccc(F)cc2)cc1OC`, the Potency was inconclusive: 16.5 µM [inhibitor, single point].
With `Cc1ccc(S(=O)(=O)NCCN2CCOCC2)c(C)c1` the “activity change, negative = inhibition” value was inactive: 37.9%.
For `NC(=O)c1cc2c3ccccc3ccn2c1-c1ccccc1`, the “activity change, negative = inhibition” value was inactive: -58%.
For `Cc1ccc(S(N)(=O)=O)cc1NC(=O)/C=C/c1ccc2c(c1)OCO2`, the “activity change, negative = inhibition” value was inactive: 302%.
For `CC(CNc1nc2ccccc2n2cnnc12)c1ccccc1` (stereo not given), the “activity change, negative = inhibition” value was inactive: 24.2%.
In the case of `Cc1noc(C)c1COc1cccc(C(=O)N(C)Cc2cccs2)c1`, the Potency is reported as inconclusive: 11.7 µM [inhibitor, single point].
For `COc1ccc(NC(=O)CCSc2ccc(C)cc2)cc1`, the Potency was inconclusive: 5.22 µM [inhibitor, partial curve, poor fit].
For `CCOC(=O)N1CCC(N2Cc3cccc(C(=O)Nc4cc(F)ccc4F)c3C2=O)CC1`, the “activity change, negative = inhibition” value was inactive: -2.88%.
In the case of `CC1CCN(S(=O)(=O)c2ccc3nc(N4CCN(c5ccccc5)CC4)ccc3c2)CC1`, the Potency is reported as active: 10.4 µM.
With `O=C(/C(=C/O)N=Nc1ccccc1Cl)c1ccccc1` the Potency was inconclusive: 9.28 µM [inhibitor, single point].
With `O=C(c1ccco1)N1CCN(C(=O)c2cnn(-c3ccc(Cl)cc3)c2C2CCNCC2)CC1` the Potency was inconclusive: 3.7 µM [inhibitor, full curve].
For `Cc1ccc(C(=O)N/N=C/c2ccc(OC(=O)c3ccccc3Cl)cc2)cn1`, the Potency was inconclusive: 18.5 µM [inhibitor, single point].
With `COc1cc(CNC(C)c2ccccc2)cc(Cl)c1OCC(=O)Nc1ccccc1` (stereo not given) the Potency was inconclusive: 18.5 µM [inhibitor, single point].
With `COCCC(=O)N1CCC(Oc2ccc(C(=O)N(C)CCCC3CCCC3)cc2)CC1` the Potency was inconclusive: 18.5 µM [inhibitor, single point].
In the case of `CC1CN(C(=O)c2cc(S(=O)(=O)N(C)c3ccc(F)cc3)ccc2Cl)CC(C)O1` (stereo not given), the “activity change, negative = inhibition” value is reported as inactive: -12.8%.
In the case of `COc1ccc(S(=O)(=O)Cc2ccc(C(=O)N3CCN(c4ccccc4F)CC3)o2)cc1`, the Potency is reported as inconclusive: 4.65 µM [inhibitor, partial curve].
For `Nc1nonc1C(=O)NCCNCc1cc(Br)ccc1OCc1ccccc1F`, the Potency was inconclusive: 18.5 µM [inhibitor, single point].
With `C=C1C[C@H]2[C@@H]3CCc4cc(OC)ccc4[C@H]3CC[C@]12C` the “activity change, negative = inhibition” value was inactive: 78.7%.
In the case of `Cc1ccccc1-n1c(SC(C)C(N)=O)nnc1-c1cccnc1` (stereo not given), the Potency is reported as inconclusive: 13.1 µM [inhibitor, single point].
For `CCOc1ccc(Br)cc1CNCCN1CCOCC1`, the Potency was active: 11.7 µM.
In the case of `O=c1c2ccccc2nc(CN2CCOCC2)n1-c1ccccc1F`, the “activity change, negative = inhibition” value is reported as inactive: -16.8%.
In the case of `CC1(C)OC2CC(=O)OC[C@@]23C1CC(=O)[C@]1(C)C3CC[C@@]2(C)C(c3ccoc3)OC(=O)C3O[C@@]321` (stereo not given in full), the Potency is reported as inconclusive: 5.36 µM [inhibitor, partial curve, poor fit].
With `Cc1cccc(N(CC(=O)N2CCCC2)S(C)(=O)=O)c1` the Potency was inconclusive: 13.1 µM [inhibitor, partial curve, poor fit].
